From paper PMC8067440 (Journal of Personalized Medicine, 2021)
These are yes or no findings as the source states them, for the method shown. Binding seen in cells or lysates may run through a third protein. Some binding calls cover weakened binding; strength is not graded here.

Sequences of proteins named here, by UniProt entry; tags and fusion partners are left off. A change or cut given only in a name is not applied to a line headed by its entry. A line that says so, or that is headed by a name, gives the form on record, which may keep a tag or linker.
DMi, dimeric AGT (minor allele), expressed in CHO-GO cells (P21549, form named): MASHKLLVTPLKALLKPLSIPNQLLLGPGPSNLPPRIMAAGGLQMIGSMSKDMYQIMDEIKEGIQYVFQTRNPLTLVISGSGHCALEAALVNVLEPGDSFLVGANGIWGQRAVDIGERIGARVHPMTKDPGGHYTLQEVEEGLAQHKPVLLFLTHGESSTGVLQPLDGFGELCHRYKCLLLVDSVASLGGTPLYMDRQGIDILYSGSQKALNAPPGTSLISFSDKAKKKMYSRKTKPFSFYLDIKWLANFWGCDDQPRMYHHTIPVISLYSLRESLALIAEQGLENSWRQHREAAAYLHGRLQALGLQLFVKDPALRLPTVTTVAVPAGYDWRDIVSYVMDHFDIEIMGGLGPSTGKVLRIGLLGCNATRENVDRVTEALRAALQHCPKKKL

Tests used:
[1] = molecular target: DMa, dimeric AGT (major allele), expressed in CHO-GO cells (human) (UniProt P21549); assay: cross-linking; whole lysate of CHO-GO cells (low-B6 medium) cross-linked with BS(PEG)5 for 30 min, quenched with Tris-HCl, Western blot with anti-AGT
[2] = molecular target: DMi, dimeric AGT (minor allele), expressed in CHO-GO cells (human) (UniProt P21549); assay: as above

binding [1] | binding [2] | Substance
binds |  | DMa, dimeric AGT (major allele), expressed in CHO-GO cells (from UniProt P21549 1-392) (enzyme)
 | binds | DMi, dimeric AGT (minor allele), expressed in CHO-GO cells (from UniProt P21549 1-392) (enzyme)
